Data from US20240108740A1, “THERAPEUTIC COMPOSITIONS INCLUDING SPN10 AND USES THEREOF” (Stealth BioTherapeutics Inc., priority 2022, published 2024).
Residues, ends and D or L forms follow the SMILES beside them.

Tested on: high-fat fed rats
Assay: Example 33: ROS production and redox state in rats fed a high-fat diet
Format: in vivo, rat

N=C(N)NCCC[C@H](NC(=O)[C@@H](N)Cc1c[nH]c2ccccc12)C(=O)N[C@@H](Cc1c[nH]c2ccccc12)C(=O)N[C@@H](CCCCN)C(N)=O [SPN10, H-L-Trp-L-Arg-L-Trp-L-Lys-NH2] (H-WRWK-NH2)
basal rates of pyruvate/malate- or palmitoyl-carnitine-supported respiration: unaffected
